Experimental data as given in article PMC9633835.

Sequences of proteins named here, by UniProt entry; tags and fusion partners are left off. A change or cut given only in a name is not applied to a line headed by its entry.
UniProt P23771: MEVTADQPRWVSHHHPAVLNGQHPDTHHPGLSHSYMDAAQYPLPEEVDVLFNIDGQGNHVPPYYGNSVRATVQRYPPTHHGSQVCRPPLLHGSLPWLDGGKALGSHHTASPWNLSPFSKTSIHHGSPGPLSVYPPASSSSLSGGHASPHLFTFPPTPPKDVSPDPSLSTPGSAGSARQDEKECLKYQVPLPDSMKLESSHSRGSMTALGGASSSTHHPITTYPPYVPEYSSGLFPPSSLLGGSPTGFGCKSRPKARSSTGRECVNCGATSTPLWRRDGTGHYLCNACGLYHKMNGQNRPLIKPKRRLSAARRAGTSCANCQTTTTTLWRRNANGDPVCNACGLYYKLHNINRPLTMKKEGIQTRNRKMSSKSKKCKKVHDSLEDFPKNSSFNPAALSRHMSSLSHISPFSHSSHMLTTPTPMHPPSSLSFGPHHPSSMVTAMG
UniProt Q09472: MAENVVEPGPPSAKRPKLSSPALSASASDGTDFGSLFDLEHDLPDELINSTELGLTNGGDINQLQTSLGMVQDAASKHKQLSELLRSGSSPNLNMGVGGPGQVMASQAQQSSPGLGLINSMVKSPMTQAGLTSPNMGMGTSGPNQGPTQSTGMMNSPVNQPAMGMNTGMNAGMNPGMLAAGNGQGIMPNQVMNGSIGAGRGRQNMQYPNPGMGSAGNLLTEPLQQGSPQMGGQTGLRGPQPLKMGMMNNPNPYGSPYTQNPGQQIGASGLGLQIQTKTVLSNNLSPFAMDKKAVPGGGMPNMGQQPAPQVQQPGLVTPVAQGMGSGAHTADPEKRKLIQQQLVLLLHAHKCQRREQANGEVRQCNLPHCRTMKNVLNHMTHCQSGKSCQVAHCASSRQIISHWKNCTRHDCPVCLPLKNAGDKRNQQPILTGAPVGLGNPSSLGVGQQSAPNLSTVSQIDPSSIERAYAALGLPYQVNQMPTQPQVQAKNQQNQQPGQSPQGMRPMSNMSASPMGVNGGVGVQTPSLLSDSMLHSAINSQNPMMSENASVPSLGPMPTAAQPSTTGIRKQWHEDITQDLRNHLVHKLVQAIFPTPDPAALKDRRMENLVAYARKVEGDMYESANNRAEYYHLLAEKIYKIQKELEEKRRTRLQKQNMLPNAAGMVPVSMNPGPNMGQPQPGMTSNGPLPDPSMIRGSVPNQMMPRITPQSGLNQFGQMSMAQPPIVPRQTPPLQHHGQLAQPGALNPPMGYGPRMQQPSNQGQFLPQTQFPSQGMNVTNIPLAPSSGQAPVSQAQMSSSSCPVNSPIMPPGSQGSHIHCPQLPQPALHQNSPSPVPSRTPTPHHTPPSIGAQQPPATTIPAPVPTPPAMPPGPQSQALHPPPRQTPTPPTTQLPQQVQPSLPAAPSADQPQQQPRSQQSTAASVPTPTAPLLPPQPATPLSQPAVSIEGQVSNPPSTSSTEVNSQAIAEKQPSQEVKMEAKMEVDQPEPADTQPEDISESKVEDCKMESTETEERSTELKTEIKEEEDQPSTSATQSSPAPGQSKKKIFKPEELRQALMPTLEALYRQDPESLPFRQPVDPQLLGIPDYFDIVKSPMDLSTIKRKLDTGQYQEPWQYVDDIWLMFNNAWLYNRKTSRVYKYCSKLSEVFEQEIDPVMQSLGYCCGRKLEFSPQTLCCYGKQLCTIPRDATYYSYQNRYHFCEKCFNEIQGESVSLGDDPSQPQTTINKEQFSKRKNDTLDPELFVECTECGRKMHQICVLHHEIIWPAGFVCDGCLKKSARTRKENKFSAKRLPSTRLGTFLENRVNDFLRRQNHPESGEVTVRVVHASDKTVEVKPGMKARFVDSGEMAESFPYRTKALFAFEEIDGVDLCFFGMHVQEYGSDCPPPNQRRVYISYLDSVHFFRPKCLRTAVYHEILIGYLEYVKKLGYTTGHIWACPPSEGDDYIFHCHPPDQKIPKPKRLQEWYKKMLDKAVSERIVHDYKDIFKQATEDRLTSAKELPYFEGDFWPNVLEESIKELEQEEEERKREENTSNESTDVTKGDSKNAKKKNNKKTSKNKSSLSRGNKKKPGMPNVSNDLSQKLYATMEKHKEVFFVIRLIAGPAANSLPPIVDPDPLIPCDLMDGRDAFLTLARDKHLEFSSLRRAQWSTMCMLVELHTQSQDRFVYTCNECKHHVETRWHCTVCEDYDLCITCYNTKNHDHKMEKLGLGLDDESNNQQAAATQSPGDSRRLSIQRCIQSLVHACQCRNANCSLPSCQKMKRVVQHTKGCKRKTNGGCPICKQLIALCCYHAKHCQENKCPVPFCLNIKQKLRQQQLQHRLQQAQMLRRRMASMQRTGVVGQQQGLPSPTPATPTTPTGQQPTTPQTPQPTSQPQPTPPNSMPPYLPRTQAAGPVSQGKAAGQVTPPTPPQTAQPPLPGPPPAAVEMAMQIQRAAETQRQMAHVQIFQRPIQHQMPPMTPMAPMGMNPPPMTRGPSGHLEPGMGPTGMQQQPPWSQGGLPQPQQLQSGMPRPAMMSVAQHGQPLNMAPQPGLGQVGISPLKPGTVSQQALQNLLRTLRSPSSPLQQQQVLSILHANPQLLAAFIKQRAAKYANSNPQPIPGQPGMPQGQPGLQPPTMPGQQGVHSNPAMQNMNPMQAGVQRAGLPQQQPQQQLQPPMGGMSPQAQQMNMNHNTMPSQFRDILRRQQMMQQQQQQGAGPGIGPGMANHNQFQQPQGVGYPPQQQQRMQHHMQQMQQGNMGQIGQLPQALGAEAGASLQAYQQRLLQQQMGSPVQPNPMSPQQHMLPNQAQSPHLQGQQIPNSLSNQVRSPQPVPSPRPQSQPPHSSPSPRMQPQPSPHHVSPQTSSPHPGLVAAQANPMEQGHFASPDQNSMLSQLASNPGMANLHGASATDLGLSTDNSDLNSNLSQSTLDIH

Biological target: GATA-3 fused with the mutated E. coli biotin ligase BirA (R118G) (UniProt P23771)
Test: proximity labelling; BioID: BirA (R118G) fused with GATA-3 expressed from a doxycycline-inducible vector in Jurkat cells; biotinylated proteins enriched by affinity capture and identified by mass spectrometry; BirA-NLS cells as negative control

Row | binding | Molecule
1 | binds | histone acetyltransferase p300 (from UniProt Q09472 1-2414)
2 | binds | ZFPM1 (protein, UniProt Q8IX07 1-1006) MSRRKQSNPRQIKRSLGDMEAREEVQLVGASHMEQKATAPEAPSPPSADVNSPPPLPPPTSPGGPKELEGQEPEPRPTEEEPGSPWSGPDELEPVVQDGQRRIRARLSLATGLSWGPFHGSVQTRASSPRQAEPSPALTLLLVDEACWLRTLPQALTEAEANTEIHRKDDALWCRVTKPVPAGGLLSVLLTAEPHSTPGHPVKKEPAEPTCPAPAHDLQLLPQQAGMASILATAVINKDVFPCKDCGIWYRSERNLQAHLLYYCASRQGTGSPAAAATDEKPKETYPNERVCPFPQCRKSCPSASSLEIHMRSHSGERPFVCLICLSAFTTKANCERHLKVHTDTLSGVCHSCGFISTTRDILYSHLVTNHMVCQPGSKGEIYSPGAGHPATKLPPDSLGSFQQQHTALQGPLASADLGLAPTPSPGLDRKALAEATNGEARAEPLAQNGGSSEPPAAPRSIKVEAVEEPEAAPILGPGEPGPQAPSRTPSPRSPAPARVKAELSSPTPGSSPVPGELGLAGALFLPQYVFGPDAAPPASEILAKMSELVHSRLQQGAGAGAGGAQTGLFPGAPKGATCFECEITFSNVNNYYVHKRLYCSGRRAPEDAPAARRPKAPPGPARAPPGQPAEPDAPRSSPGPGAREEGAGGAATPEDGAGGRGSEGSQSPGSSVDDAEDDPSRTLCEACNIRFSRHETYTVHKRYYCASRHDPPPRRPAAPPGPPGPAAPPAPSPAAPVRTRRRRKLYELHAAGAPPPPPPGHAPAPESPRPGSGSGSGPGLAPARSPGPAADGPIDLSKKPRRPLPGAPAPALADYHECTACRVSFHSLEAYLAHKKYSCPAAPPPGALGLPAAACPYCPPNGPVRGDLLEHFRLAHGLLLGAPLAGPGVEARTPADRGPSPAPAPAASPQPGSRGPRDGLGPEPQEPPPGPPPSPAAAPEAVPPPPAPPSYSDKGVQTPSKGTPAPLPNGNHRYCRLCNIKFSSLSTFIAHKKYYCSSHAAEHVK

No constants are given. Whether binding was seen depends on the method and setting. Binding seen in cells or lysates may run through a third protein. Here binding means that the protein was enriched with, or labelled near, the bait; the list need not be complete.
